Drawing on US20020146774A1 (LUDWIG INSTITUTE FOR CANCER RESEARCH, published 2002), this text covers binding for 6 substances.

By UniProt entry, the sequences of proteins in these tests, tags left out. Where a name states a change or a piece, a line headed by the entry shows the natural chain unless it says otherwise.
UniProt Q62432: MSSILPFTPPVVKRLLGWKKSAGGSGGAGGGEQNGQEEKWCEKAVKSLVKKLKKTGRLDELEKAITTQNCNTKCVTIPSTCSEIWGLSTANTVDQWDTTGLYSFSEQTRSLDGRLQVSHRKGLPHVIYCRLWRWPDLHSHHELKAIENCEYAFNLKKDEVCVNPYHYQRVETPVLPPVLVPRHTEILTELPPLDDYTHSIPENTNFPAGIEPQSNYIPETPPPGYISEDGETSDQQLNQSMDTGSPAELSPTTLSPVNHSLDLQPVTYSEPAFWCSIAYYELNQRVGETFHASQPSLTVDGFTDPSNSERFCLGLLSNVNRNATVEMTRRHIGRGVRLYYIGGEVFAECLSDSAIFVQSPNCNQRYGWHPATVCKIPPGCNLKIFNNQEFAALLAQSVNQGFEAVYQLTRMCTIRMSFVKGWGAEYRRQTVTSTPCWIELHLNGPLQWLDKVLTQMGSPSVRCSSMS

Substitutions are numbered along the chain they refer to. Results are given in words; binding and its absence hold for the method and conditions named. In cells and extracts the contact can be indirect. Some binding calls cover weakened binding; strength is not graded here. Where a sequence is shown, tags or fusion partners need not be part of it.

Experiment [1] addresses T1, kinase-inactive (K.R.) TβR-I tagged at C-terminus with HA epitope (UniProt P36897).
T1 sequence (phosphorylated by TβR-II kinase (sites not printed), looked up): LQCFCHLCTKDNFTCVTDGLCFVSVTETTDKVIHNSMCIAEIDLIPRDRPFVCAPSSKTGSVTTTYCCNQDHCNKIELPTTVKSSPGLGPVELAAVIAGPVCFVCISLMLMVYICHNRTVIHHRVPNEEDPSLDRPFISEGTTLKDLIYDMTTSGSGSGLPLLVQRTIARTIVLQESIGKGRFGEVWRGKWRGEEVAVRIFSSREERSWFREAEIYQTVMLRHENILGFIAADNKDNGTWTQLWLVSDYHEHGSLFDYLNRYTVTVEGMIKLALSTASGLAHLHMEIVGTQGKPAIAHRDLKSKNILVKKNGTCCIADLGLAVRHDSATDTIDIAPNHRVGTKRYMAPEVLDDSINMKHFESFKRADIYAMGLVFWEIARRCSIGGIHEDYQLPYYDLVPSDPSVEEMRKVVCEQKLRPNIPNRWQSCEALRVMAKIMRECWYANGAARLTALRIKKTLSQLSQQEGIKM
Put plainly: co-immunoprecipitation of 125I-TGF-β1 cross-linked receptors with Smad2 antiserum, COS-1 cells.

Experiment [2] deals with T1, kinase-inactive (K.R.) TβR-I tagged at C-terminus with HA epitope. Put plainly: co-immunoprecipitation.
Experiment [3] has as its target T2, wild-type TβR-I tagged at C-terminus with HA epitope (UniProt P36897).
T2 sequence (looked up): T1 sequence (phosphorylated by TβR-II kinase (sites not printed), looked up) with R199K
Put plainly: summary of the co-immunoprecipitation experiment.

The target in experiment [4] is T2, wild-type TβR-I tagged at C-terminus with HA epitope. Put plainly: co-immunoprecipitation of 125I-TGF-β1 cross-linked receptors with Smad2 antiserum, COS-1 cells.
Experiment [5] shares this target. As to the kind of experiment: co-immunoprecipitation.

For “wild-type Smad2 (from UniProt Q62432 1-467)”, the binding result in experiment [1] and in experiment [2] was “binds” throughout.

With Smad2/S464A (from UniProt Q62432 1-467), the binding entry in experiment [3], in experiment [4] and in experiment [5] was “binds” each time.

For the substance “Smad2/S465,467A (from UniProt Q62432 1-464)”, the binding result in experiment [3], in experiment [4] and in experiment [5] was “binds” in each case.

Regarding Smad2/S467A (from UniProt Q62432 1-466), the binding result in experiment [3], in experiment [4] and in experiment [5] was “binds” throughout.

“Smad2/S464,465,467A (from UniProt Q62432 1-463)”: the binding entry in experiment [4] and in experiment [5] was “binds” in each case.

Turning to Smad2/S465A (from UniProt Q62432 1-467), the binding result in experiment [3], in experiment [4] and in experiment [5] was “binds” throughout.
